Results are given in words; binding and its absence hold for the method and conditions named. Some entries that bind do so weakly or less than the wild type. Sequences can lack the tags named with a protein.
B1: polypeptide from lysosomal-associated multispanning membrane protein-5 (LAPTM5) selected by Nedd4-WW3 (peptide, not shown: large carriers)
peptide: SSYRLIKCMNSVEEKRNSKMLQKVVLPSYEEALSLPSKTPEGGPAPPPYSEV
B2: polypeptide from Nogo-A protein short form (390-491) selected by Nedd4-WW3 (peptide, not shown: large carriers)
peptide: SAVPSAGASVIQPSSSPLEASSVNYESIKHEPENPPPYEEAMSVSLKKVSGIKEEIKEPENINAALQETEAPYISIACDLIKETKLSAEPAPDFSDYSEMAK
B3: polypeptide from N-chimaerin homolog (DKFZp434A1010) selected by Nedd4-WW3 (peptide, not shown: large carriers)
peptide: GPRTPHRVPGPWGPPEPLLLYRAAPPAYGRGGELHRGSLYRNGGQRGEGAGPPPPYPTPSWSLHSEGQTRSYC

Amino acid sequences for entries named in this document (tags omitted). Residues count along the entry.
UniProt P46935, residues 455-498: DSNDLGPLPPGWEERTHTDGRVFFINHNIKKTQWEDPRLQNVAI

target: third WW domain of the mouse Nedd4 ubiquitin protein ligase (Nedd4-WW3) (mouse) (UniProt P46935); assay: TAIS screen of T7 phage-displayed human brain cDNA library

binding, binds:
STPEKTDMTPSTTSPPSYDSVTKPEKEKFEKDKSEKEDKGKDIRESKK (peptide, not shown: large carriers; small tags and cut ends) [polypeptide from voltage-gated sodium channel type II alpha subunit (SCN2A) selected by Nedd4-WW3]
B1
B2
B3
